This passage reports binding results from PMC10897318.

Amino acid sequences for entries named in this document (tags omitted).
UniProt Q15797: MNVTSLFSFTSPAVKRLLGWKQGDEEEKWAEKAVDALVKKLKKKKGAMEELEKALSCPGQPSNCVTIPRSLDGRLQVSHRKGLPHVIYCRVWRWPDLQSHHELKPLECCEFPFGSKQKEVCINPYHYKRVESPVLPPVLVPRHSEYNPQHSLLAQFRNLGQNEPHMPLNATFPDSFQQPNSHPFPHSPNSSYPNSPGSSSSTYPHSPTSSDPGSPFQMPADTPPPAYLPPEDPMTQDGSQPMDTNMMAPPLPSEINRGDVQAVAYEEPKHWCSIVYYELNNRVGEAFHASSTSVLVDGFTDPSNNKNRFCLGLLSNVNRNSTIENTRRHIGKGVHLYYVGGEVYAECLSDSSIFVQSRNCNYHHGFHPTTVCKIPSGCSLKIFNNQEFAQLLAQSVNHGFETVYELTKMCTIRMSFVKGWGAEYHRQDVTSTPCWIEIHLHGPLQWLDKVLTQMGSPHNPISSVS

In the assay the target is SMAD1-FLAG (FLAG-tagged human SMAD1) (human) (UniProt Q15797). The assay is described as follows: co-IP; lysates of transfected HEK293T cells incubated with the indicated antibody at 4 °C overnight, protein G Dynabeads 1 h, five washes in lysis buffer, western blot. (A western blot detects proteins with antibodies after separation by electrophoresis.)

Results are given in words; binding and its absence hold for the method and conditions named. In cells and extracts the contact can be indirect. Some entries that bind do so weakly or less than the wild type. Tags and fused reporters may be left off the sequences shown.

B1: ZSWIM4-Myc (Myc-tagged human Zinc Finger SWIM-Type Containing 4) (protein, UniProt Q9H7M6 1-989)
chain: MEPPAAKRSRGCPAGPEERDAGAGAARGRGRPEALLDLSAKRVAESWAFEQVEERFSRVPEPVQKRIVFWSFPRSEREICMYSSLGYPPPEGEHDARVPFTRGLHLLQSGAVDRVLQVGFHLSGNIREPGSPGEPERLYHVSISFDRCKITSVSCGCDNRDLFYCAHVVALSLYRIRHAHQVELRLPISETLSQMNRDQLQKFVQYLISAHHTEVLPTAQRLADEILLLGSEINLVNGAPDPTAGAGIEDANCWHLDEEQIQEQVKQLLSNGGYYGASQQLRSMFSKVREMLRMRDSNGARMLILMTEQFLQDTRLALWRQQGAGMTDKCRQLWDELGALWVCVVLSPHCKPEERAGWLQLLSRWDKLDVCPLEEGNYSFDGPSLQPTMAPAPELLQKGSTCITNTEGWVGHPLDPIGCLCRALLEACRLEEETLTLYPDSGPEKRKVAYQHVPVPGSPGESYLVLALEVALLGLGQQRALPEGLYAQDKVVRNEEQLLALLEEVELDERLVQVLRKQAGLLLEGGPFSGFGEVLFRESVPMHTCARYLFTALLPHDPDLAYRLALRAMRLPILETAFPAGEPHPSPLDSIMSNRFPRWFILGHLETRQCELASTMLTAAKGDPKWLHTVLGSIQQNIHSPALLFKLAQDACKTATPVSAPPDTTLLGIALELGLQVMRMTLNVMTWRRREMVRWLVSCATEIGPQALMNIMQNWYSLFTPVEAATIVAVTGTTHATLLRLQLDTSRREELWACARTLALQCAMKDPQNCALPALTLCEKNHSAFEAAYQIVLDAAAGGLGHAHLFTVARYMEHRGLPLRAYKLATLALAQLSIAFNQDSHPAVNDVLWACSLSHSLGRHELSAIVPLIIRSIHCAPMLSDILRRWTLSAPGLGPLGARRAAKPLGADRAPLCQLLDAAVTAYITTSHSRLTHISPRHYGDFIEFLGKARETFLLAPDGHLQFSQFLENLKQTYKGKKKLMLLVRERFG
With B1, the binding entry is on record as “binds”.
